Tested on: ct-DNA–EB system
Assay: Ethidium bromide–ct-DNA displacement, time-resolved fluorometry (TCSPC)
Assay type: binding, calf
Conditions: cct-DNA 20 µM, cEB 5 µM, pH 7.40

Row | SMILES | amplitude α1 (ccomplex/cct-DNA 1.00) | amplitude α2 (ccomplex/cct-DNA 1.00) | average lifetime τave (ccomplex/cct-DNA 1.00) | lifetime τ1 (ccomplex/cct-DNA 1.00) | lifetime τ2 (ccomplex/cct-DNA 1.00) | amplitude α1 (ccomplex/cct-DNA 2.00) | amplitude α2 (ccomplex/cct-DNA 2.00) | average lifetime τave (ccomplex/cct-DNA 2.00) | lifetime τ1 (ccomplex/cct-DNA 2.00) | lifetime τ2 (ccomplex/cct-DNA 2.00) | amplitude α1 (ccomplex/cct-DNA 4.01) | amplitude α2 (ccomplex/cct-DNA 4.01) | average lifetime τave (ccomplex/cct-DNA 4.01) | lifetime τ1 (ccomplex/cct-DNA 4.01) | lifetime τ2 (ccomplex/cct-DNA 4.01) | amplitude α1 (ccomplex/cct-DNA 6.01) | amplitude α2 (ccomplex/cct-DNA 6.01) | average lifetime τave (ccomplex/cct-DNA 6.01) | lifetime τ1 (ccomplex/cct-DNA 6.01) | lifetime τ2 (ccomplex/cct-DNA 6.01) | other results
1 | Cc1ccc(C(C)C)cc1.O=C(O)[C@H]1CCCC[NH+]1Cc1cc(Cl)c2cccnc2c1[O-].[Cl-].[Cl-].[Ru+2] [RuCym–HQCl-D-hPro, [RuCym(HQCl-D-hPro)Cl]Cl] | 0.645 | 0.355 | 8.80 ns | 1.67 ns | 21.78 ns | 0.656 | 0.344 | 8.47 ns | 1.63 ns | 21.53 ns | 0.656 | 0.344 | 8.42 ns | 1.63 ns | 21.37 ns | 0.666 | 0.334 | 8.17 ns | 1.66 ns | 21.15 ns | amplitude α1 (ccomplex/cct-DNA 10.02): 0.916; amplitude α2 (ccomplex/cct-DNA 10.02): 0.084; average lifetime τave (ccomplex/cct-DNA 10.02): 3.13 ns; lifetime τ1 (ccomplex/cct-DNA 10.02): 1.59 ns; lifetime τ2 (ccomplex/cct-DNA 10.02): 19.99 ns; amplitude α1 (ccomplex/cct-DNA 15.03): 1.000; amplitude α2 (ccomplex/cct-DNA 15.03): 0.000; average lifetime τave (ccomplex/cct-DNA 15.03): 1.57 ns; lifetime τ1 (ccomplex/cct-DNA 15.03): 1.57 ns
2 | Cc1c(C)c(C)[c-](C)c1C.O=C(O)[C@H]1CCCC[NH+]1Cc1cc(Cl)c2cccnc2c1[O-].[Cl-].[Cl-].[Rh+3] [RhCp*–HQCl-D-hPro, [RhCp*(HQCl-D-hPro)Cl]Cl] | 0.651 | 0.349 | 8.69 ns | 1.67 ns | 21.76 ns | 0.656 | 0.344 | 8.51 ns | 1.65 ns | 21.58 ns | 0.731 | 0.269 | 6.96 ns | 1.64 ns | 21.44 ns | 0.935 | 0.065 | 2.83 ns | 1.60 ns | 20.42 ns | amplitude α1 (ccomplex/cct-DNA 10.02): 0.995; amplitude α2 (ccomplex/cct-DNA 10.02): 0.005; average lifetime τave (ccomplex/cct-DNA 10.02): 1.69 ns; lifetime τ1 (ccomplex/cct-DNA 10.02): 1.59 ns

Reference: article PMC8570331, “8-Hydroxyquinoline-Amino Acid Hybrids and Their Half-Sandwich Rh and Ru Complexes: Synthesis, Anticancer Activities, Solution Chemistry and Interaction with Biomolecules” (International Journal of Molecular Sciences, 2021)
